Data reported in paper PMC10407933 (The Journal of Organic Chemistry, 2023).
HELM strings list residues between dots; [ac] is acetyl, [am] amide, other brackets name non-standard units.

Assay: general procedure: Fmoc solid-phase peptide synthesis; Tentagel resin
Settings: whole synthesis

Row | Substance | isolated yield [%] | isolated yield (over 9 steps) [%] | isolated mass (scale 50 µmol) [mg] | isolated yield (over 8 steps) [%] | isolated yield (scale 50 µmol) [%]
1 | PEPTIDE1{T.F.[beta-N(tau)-ADPr-His*].G.A.G.L.V.V.P.V.D.K}$$$$V2.0 | 36 | 26 | 24.7 | – | –
2 | PEPTIDE1{T.F.[alpha-N(pi)-ADPr-His*].G.A.G.L.V.V.P.V.D.K}$$$$V2.0 | – | – | 11.9 | 25 | –
3 | PEPTIDE1{T.F.[beta-N(pi)-ADPr-His*].G.A.G.L.V.V.P.V.D.K}$$$$V2.0 | 25 | 9 | 8.0 | – | –
4 | PEPTIDE1{T.F.[alpha-N(tau)-ADPr-His*].G.A.G.L.V.V.P.V.D.K}$$$$V2.0 | – | – | 33.2 | 36 | 35
